Assay results reported in patent publication US11912793B2 (SICHUAN UNIVERSITY, priority 2022, dated 2024).
Where a sequence shows no end group, the ends are not given.

Key:
peptide synthesis [1] = conditions: whole synthesis
peptide synthesis [2] = conditions: whole synthesis; remark: listed apart in the source

Sequence	final HPLC purity (peptide synthesis [1])	final HPLC purity (peptide synthesis [2])
CKPLRLSKEEHPLK (The sequence is synthetized)	purity=96.15%	
GPGGDKCRCVFHWVCCYVS (GPGGDKCRCVFHWCCYVS; The sequence is synthetized)		purity=96.59%
